Results are given in words; binding and its absence hold for the method and conditions named. Some binding calls cover weakened binding; strength is not graded here.
Molecular target: human CD137 expressed on the surface of CHO cells (human) (UniProt Q07011)
Assay: FMAT, CHO human CD137 cells

Amino acid sequences for entries named in this document (tags omitted). A change or cut given only in a name is not applied to a line headed by its entry.
UniProt Q07011: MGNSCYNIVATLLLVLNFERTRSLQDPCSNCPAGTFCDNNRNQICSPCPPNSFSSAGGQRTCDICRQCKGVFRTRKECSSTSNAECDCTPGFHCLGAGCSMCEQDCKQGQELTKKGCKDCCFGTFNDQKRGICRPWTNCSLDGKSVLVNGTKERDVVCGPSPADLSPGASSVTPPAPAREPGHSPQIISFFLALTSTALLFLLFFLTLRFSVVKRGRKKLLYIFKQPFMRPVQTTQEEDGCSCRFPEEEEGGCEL

B1: 4.1-6GS-1.1-6GS-VH (MSA) (bispecific antibody, not shown: small tags and cut ends)
chain: EVQLVESGGGVVQPGRSLRLSCAASGFSFSGYGMHWVRQAPGKGLEWVAYISYDGSNKYYADSVKGRFTISRDNSKNTLYLQMNSLRAEDTAVYYCAKDPAWGLRLGESSSYDFDIWGQGTMVTVSSGGGGSGGGGSGGGGSGGGGSGGGGSGGGGSEVQLVESGGGLVQPGGSLRLSCAASGFTFSSHWMTWFRQAPGKGLEWVAHIKEDGSEKYYEDSVEGRFTVSRDNAKNSVYLQMNSLRAEDTAVYYCARGGDGYSDSHFGVDVWGQGTTVTVSSGGGGSGGGGSGGGGSGGGGSGGGGSGGGGSQVQLVESGGGLVQPGGSLRLSCAASGFTFSSYAMSWVRQAPGKGLEWVATISDSGSSADYADSVKGRFTISRDNSKNTLYLQMNSLRAEDTAVYYCARGRYNWNPRALGIWGQGTMVTVSS
**Q.** Which binding does the source give for B1 here?
**A.** binds

— patent US20200362047A1
